No constants are given. Whether binding was seen depends on the method and setting. Some results given as binding are weak or reduced against the parent protein; the word gives no strength.
Experiments:
[1] = target: mouse BTLA on 293T cells (mouse) (UniProt Q7TSA3); test: flow cytometry, mouse HVEM-Fc titrated on 293T cells transfected with mouse BTLA, anti-human Fc [panel B]
[2] = target: mouse LIGHT on 293T cells (mouse) (UniProt Q9QYH9); test: flow cytometry, mouse HVEM-Fc titrated on 293T cells transfected with mouse LIGHT, anti-human Fc [panel C]

By UniProt entry, the sequences of proteins in these tests, tags left out. Residues count along the entry.
UniProt Q7TSA3, residues 30-306: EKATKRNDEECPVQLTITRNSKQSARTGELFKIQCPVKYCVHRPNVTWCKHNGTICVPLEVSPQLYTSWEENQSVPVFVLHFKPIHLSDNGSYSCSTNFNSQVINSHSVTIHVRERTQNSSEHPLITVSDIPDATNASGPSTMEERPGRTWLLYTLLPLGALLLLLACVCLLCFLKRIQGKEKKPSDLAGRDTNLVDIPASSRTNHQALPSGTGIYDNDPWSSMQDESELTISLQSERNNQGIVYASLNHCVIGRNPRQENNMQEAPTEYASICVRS
UniProt Q9QYH9: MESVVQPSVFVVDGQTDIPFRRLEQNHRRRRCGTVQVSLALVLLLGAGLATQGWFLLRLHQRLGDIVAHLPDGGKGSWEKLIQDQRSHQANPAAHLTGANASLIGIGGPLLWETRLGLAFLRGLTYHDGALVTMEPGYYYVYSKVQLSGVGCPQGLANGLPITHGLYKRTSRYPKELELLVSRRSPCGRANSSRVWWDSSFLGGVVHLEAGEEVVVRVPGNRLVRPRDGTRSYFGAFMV
UniProt Q80WM9, residues 39-210: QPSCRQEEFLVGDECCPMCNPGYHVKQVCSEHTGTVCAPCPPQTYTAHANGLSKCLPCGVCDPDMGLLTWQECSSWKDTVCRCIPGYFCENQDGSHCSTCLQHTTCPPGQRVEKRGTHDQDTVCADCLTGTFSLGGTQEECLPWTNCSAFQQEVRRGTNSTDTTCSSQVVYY

WT (from UniProt Q80WM9) (Fc fusion)
binding [1]: binds
binding [2]: binds
